# According to PMC10869718:
# Protein sequences, listed by entry. Tags and fused reporters are not part of them.
# UniProt P46937: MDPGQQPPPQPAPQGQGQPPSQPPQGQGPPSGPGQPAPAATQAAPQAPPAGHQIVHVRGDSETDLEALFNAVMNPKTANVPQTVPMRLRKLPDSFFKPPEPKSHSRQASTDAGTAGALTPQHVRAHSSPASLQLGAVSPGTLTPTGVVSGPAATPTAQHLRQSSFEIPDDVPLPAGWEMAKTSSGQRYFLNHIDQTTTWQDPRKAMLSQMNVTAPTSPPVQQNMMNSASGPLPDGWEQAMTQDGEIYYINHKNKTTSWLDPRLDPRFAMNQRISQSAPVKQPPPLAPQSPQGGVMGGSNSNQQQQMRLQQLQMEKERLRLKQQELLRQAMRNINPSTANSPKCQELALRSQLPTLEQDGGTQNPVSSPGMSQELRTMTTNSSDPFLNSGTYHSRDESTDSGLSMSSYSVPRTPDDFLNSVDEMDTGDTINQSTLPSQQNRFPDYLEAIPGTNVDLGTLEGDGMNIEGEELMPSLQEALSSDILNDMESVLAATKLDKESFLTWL
# UniProt P21333: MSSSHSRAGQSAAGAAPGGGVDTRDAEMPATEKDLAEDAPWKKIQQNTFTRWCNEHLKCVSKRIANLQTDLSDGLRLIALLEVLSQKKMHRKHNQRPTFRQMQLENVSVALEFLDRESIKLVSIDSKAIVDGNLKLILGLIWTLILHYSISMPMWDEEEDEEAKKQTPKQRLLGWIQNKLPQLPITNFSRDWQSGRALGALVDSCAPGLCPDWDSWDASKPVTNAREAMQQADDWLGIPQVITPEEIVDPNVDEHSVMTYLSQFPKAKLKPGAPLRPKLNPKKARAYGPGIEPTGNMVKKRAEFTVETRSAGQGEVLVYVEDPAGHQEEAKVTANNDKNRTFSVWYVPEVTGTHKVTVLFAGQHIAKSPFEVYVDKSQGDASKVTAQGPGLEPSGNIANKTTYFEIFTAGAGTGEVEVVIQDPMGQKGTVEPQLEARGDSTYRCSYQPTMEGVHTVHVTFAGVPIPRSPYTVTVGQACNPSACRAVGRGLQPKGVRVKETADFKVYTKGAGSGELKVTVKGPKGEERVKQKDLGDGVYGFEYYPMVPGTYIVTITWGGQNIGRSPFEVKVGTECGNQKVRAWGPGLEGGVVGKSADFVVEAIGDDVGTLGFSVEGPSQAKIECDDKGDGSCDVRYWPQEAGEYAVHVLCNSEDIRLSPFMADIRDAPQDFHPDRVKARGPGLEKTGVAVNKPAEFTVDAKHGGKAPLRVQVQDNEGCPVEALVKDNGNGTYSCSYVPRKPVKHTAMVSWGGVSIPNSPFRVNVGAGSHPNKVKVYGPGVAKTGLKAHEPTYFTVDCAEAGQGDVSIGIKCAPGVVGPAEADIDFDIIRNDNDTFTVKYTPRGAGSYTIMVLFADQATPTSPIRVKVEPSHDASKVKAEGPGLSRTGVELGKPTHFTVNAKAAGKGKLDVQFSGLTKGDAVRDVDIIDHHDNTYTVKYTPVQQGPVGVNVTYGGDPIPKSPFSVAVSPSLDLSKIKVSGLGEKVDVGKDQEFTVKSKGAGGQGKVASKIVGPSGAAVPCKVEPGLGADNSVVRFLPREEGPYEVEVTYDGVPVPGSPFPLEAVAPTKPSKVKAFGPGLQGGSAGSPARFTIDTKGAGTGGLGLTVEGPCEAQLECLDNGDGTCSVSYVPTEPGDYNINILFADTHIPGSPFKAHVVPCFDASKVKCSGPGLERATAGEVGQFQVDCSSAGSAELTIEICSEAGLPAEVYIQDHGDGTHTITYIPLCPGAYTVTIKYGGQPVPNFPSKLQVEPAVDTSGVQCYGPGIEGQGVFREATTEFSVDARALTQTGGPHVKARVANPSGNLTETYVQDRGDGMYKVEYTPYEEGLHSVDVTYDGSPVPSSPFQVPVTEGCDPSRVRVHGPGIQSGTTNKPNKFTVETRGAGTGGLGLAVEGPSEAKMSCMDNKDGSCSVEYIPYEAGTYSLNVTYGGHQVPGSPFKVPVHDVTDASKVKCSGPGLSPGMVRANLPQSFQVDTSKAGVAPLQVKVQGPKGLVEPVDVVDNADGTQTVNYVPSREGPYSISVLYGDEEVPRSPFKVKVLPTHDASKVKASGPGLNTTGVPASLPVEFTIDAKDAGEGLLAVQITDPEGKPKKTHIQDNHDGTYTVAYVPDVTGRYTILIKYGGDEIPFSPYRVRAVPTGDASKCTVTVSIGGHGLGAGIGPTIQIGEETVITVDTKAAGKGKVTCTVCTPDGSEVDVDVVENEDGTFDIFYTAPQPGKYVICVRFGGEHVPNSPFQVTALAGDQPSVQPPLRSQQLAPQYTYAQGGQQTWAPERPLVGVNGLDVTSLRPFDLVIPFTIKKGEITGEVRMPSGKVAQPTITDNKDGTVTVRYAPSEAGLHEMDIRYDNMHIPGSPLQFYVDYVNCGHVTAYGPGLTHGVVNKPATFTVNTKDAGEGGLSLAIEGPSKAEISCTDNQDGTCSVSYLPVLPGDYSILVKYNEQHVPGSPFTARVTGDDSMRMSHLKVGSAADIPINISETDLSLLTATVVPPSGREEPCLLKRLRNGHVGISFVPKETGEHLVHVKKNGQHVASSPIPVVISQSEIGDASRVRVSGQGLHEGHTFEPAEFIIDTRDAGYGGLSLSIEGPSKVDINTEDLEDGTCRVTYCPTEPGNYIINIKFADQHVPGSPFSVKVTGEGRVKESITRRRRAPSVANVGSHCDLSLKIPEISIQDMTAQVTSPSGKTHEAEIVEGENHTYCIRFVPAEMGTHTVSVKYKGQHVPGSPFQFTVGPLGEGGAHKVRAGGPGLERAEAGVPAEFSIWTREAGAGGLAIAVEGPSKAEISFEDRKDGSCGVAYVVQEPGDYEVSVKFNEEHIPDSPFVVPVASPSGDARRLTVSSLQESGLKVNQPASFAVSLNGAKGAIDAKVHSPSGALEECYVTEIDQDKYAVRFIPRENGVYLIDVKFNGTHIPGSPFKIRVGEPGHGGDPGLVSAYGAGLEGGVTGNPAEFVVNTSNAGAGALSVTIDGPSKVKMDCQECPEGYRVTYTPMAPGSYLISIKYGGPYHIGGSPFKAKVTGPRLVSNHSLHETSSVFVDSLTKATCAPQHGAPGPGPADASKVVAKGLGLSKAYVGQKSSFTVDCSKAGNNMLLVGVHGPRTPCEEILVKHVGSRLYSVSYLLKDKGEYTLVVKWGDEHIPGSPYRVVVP
# UniProt P06239: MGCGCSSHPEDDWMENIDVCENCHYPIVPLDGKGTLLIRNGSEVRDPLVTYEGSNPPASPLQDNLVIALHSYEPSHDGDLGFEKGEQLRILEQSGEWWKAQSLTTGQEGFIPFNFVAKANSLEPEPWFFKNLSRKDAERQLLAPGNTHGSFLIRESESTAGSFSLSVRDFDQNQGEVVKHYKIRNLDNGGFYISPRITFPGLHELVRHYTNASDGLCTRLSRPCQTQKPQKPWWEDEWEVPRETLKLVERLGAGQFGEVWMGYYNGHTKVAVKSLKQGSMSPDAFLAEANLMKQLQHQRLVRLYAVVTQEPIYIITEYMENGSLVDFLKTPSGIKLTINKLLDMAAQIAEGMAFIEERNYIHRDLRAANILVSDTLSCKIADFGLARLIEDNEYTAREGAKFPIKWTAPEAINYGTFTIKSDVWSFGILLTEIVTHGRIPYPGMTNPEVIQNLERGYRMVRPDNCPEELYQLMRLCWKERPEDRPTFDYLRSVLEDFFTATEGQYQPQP
# UniProt P43403: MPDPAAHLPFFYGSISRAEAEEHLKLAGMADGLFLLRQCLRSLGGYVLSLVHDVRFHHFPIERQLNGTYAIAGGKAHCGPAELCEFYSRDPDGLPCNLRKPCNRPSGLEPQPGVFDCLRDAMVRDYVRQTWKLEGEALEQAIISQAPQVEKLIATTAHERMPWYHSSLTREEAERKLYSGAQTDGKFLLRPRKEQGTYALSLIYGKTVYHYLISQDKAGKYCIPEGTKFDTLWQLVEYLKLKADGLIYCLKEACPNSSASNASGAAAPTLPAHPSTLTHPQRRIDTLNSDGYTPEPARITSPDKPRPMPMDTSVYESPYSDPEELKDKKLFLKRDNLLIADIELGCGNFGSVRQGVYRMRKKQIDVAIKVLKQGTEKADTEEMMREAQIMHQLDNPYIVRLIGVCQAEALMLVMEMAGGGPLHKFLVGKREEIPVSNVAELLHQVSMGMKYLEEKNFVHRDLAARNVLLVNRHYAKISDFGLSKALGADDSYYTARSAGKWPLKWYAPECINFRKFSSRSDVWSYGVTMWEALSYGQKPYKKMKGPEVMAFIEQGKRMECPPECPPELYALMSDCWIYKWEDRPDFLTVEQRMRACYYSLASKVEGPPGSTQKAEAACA
# These are yes or no findings as the source states them, for the method shown. In cells and extracts the contact can be indirect. Some binding calls cover weakened binding; strength is not graded here.
# B1: perforin (protein, UniProt P14222 22-555)
# chain: PCHTAARSECKRSHKFVPGAWLAGEGVDVTSLRRSGSFPVDTQRFLRPDGTCTLCENALQEGTLQRLPLALTNWRAQGSGCQRHVTRAKVSSTEAVARDAARSIRNDWKVGLDVTPKPTSNVHVSVAGSHSQAANFAAQKTHQDQYSFSTDTVECRFYSFHVVHTPPLHPDFKRALGDLPHHFNASTQPAYLRLISNYGTHFIRAVELGGRISALTALRTCELALEGLTDNEVEDCLTVEAQVNIGIHGSISAEAKACEEKKKKHKMTASFHQTYRERHSEVVGGHHTSINDLLFGIQAGPEQYSAWVNSLPGSPGLVDYTLEPLHVLLDSQDPRREALRRALSQYLTDRARWRDCSRPCPPGRQKSPRDPCQCVCHGSAVTTQDCCPRQRGLAQLEVTFIQAWGLWGDWFTATDAYVKLFFGGQELRTSTVWDNNNPIWSVRLDFGDVLLATGGPLRLQVWDQDSGRDDDLLGTCDQAPKSGSHEVRCNLNHGHLKFRYHARCLPHLGGGTCLDYVPQMLLGEPPGNRSGAVW
# Tests used:
# [1] = target: YAP-Flag (UniProt P46937); test: co-IP; 293T cells transfected with YAP-Flag and LCK-Myc or ZAP70-HA vector; immunoprecipitation of YAP (anti-Flag antibody, Protein-A agarose, 4 °C), immunoblot
# [2] = target: filamin A (UniProt P21333); test: co-IP; co-immunoprecipitation of perforin and FLNA (Supplementary Fig. 2i); cells and bait not given
Molecule,binding [1],binding [2]
LCK-Myc (from UniProt P06239 1-509) (enzyme),binds,
ZAP70-HA (from UniProt P43403 1-619) (enzyme),binds,
B1,,no binding
